# Out of some 300,000 compounds screened, about 3,700 (1.2%) were called active. Inconclusive results, whose numbers are uncertain, are shown with a selection of clear calls. The call rests on the fitted dose curve; tested in HEK293 cells. Where the call is inconclusive, the potency comes from a doubtful curve fit.
# Experiment: qHTS for Inhibitors of binding or entry into cells for Lassa Virus; further: nearly all actives have a fitted effect of over 50% in size
# Conditions: Lassa virus pseudotype entry inhibition, cell reporter; activity change, negative = inhibition: at 37.9 µM (top of the series) unless noted
# On the % scale 0 is the no-effect control and ±100 the full control effect; potency means the concentration at half of the fitted maximal effect.
Compound,"activity change, negative = inhibition",Potency
COc1ccccc1N(C(=O)c1csnn1)C(C(=O)NC1CCCC1)c1ccccc1 (stereo not given),inactive: -5.21% [at 46.1 µM],–
COc1ccc(S(=O)(=O)N2CCN(C(=O)c3cc4c(s3)CCC4)CC2)cc1,–,"inconclusive: 12.6 µM [inhibitor, partial curve, poor fit]"
Cc1cccc(C(=O)Nc2ccccc2C(=O)NCc2ccco2)c1,inactive: 10.7%,–
C[N+]12CCCCC1C(COC(=O)c1ccc3c(c1)OCO3)CCC2 (stereo not given),inactive: -12.5%,–
O=C(c1ccc2c(=O)n(CCc3ccccc3)c(=O)[nH]c2c1)N1CCN(c2ccc(Cl)cc2)CC1,–,"inconclusive: 5.62 µM [activator, single point]"
c1ccc(-n2ncc3c(NCCN4CCOCC4)ncnc32)cc1,–,"inconclusive: 7.3 µM [activator, partial curve, poor fit]"
CC(C)Cn1c(/C=C/c2ccc(F)cc2)nc2ccccc21,–,"inconclusive: 8.91 µM [inhibitor, partial curve, poor fit]"
O=C(c1cccs1)N1CCCc2cc(NS(=O)(=O)c3ccc(F)cc3)ccc21,–,"inconclusive: 22.4 µM [inhibitor, single point]"
CCN1CCN(c2nc3ccccc3s2)CC1,–,"inconclusive: 29.1 µM [inhibitor, single point]"
Clc1ccc(SCc2cc(-c3ccccc3)no2)cc1,inactive: 3.13%,–
CC(NC(=O)c1c(O)c2ccccc2n(C)c1=O)c1ccccc1 (stereo not given),–,"inconclusive: 15.8 µM [inhibitor, single point]"
CN(C)c1ccc(C(CNS(=O)(=O)c2ccc(Br)cc2)N2CCOCC2)cc1 (stereo not given),–,"inconclusive: 35.5 µM [inhibitor, single point]"
O=c1c2sc3ccccc3c2n(Cc2ccccc2F)c(=O)n1CCc1ccccc1,–,"inconclusive: 14.1 µM [activator, single point]"
CCN(CC)c1nc(Nc2ccccc2)nc(Oc2ccc(C(=O)OC)cc2)n1,inactive: 1.79%,–
N=c1n(CCc2ccccc2)c2ccccc2n1Cc1ccccc1F,–,"inconclusive: 16.4 µM [inhibitor, single point]"
CCN(c1ccccc1)S(=O)(=O)c1ccc(C(=O)Nc2ccccc2OC)cc1,–,"inconclusive: 11.2 µM [inhibitor, partial curve, poor fit]"
CC(/C=N/NC(=O)Cc1cccs1)=C\c1ccco1,inactive: 7.94%,–
c1ccc(OCCSc2nnnn2C2CCCCC2)cc1,–,active: 14.1 µM
FC(F)Oc1ccc(NC(=S)NC2CCCCCCC2)cc1,–,"inconclusive: 5.62 µM [inhibitor, full curve, poor fit]"
Cc1ccc(C)c(S(=O)(=O)c2nnn3c2nc(NCc2ccc4c(c2)OCO4)c2sccc23)c1,–,"inconclusive: 12.6 µM [inhibitor, single point]"

# As a short view, two of the compounds above:
Compound,"activity change, negative = inhibition",Potency
O=c1c2sc3ccccc3c2n(Cc2ccccc2F)c(=O)n1CCc1ccccc1,–,"inconclusive: 14.1 µM [activator, single point]"
CCN(CC)c1nc(Nc2ccccc2)nc(Oc2ccc(C(=O)OC)cc2)n1,inactive: 1.79%,–

# — PubChem BioAssay AID540256 (National Center for Advancing Translational Sciences (NCATS), 2011)
